From publication PMC13595970
These are yes or no findings as the source states them, for the method shown. In cells and extracts the contact can be indirect. Some binding calls cover weakened binding; strength is not graded here.

The chains behind the UniProt entries cited, without tags or fusion partners. Residues count along the entry.
UniProt Q01299, residues 2512-3414: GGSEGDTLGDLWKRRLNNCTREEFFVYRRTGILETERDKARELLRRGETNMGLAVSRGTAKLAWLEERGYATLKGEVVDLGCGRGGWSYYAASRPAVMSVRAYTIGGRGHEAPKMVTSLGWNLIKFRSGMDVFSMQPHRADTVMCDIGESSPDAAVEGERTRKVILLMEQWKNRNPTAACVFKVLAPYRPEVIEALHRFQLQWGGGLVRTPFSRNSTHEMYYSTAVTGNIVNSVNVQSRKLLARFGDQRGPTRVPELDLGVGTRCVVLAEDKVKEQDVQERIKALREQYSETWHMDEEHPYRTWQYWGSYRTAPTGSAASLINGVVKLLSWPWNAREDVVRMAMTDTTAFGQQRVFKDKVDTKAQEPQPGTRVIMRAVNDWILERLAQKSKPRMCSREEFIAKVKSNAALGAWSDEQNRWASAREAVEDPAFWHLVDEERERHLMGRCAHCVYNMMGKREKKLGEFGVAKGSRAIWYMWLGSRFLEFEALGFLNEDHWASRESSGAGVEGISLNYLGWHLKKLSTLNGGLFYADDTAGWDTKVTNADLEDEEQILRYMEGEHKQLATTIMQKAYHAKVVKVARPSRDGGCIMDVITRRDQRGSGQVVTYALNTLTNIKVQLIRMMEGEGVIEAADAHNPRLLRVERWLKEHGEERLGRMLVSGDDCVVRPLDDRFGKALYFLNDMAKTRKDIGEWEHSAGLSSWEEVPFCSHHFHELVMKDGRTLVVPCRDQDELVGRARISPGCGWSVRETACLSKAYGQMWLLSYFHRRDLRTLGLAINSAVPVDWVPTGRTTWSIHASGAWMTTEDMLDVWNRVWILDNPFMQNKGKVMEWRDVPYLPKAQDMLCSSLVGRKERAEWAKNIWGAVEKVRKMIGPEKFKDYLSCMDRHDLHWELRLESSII
UniProt Q16637: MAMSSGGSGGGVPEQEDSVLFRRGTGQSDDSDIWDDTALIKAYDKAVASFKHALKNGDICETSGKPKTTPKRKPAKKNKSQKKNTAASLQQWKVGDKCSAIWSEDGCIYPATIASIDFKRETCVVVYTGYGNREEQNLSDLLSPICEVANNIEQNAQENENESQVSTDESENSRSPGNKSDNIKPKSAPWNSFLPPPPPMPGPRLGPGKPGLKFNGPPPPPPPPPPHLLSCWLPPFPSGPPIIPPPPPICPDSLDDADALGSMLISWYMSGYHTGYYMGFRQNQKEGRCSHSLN
UniProt P29597: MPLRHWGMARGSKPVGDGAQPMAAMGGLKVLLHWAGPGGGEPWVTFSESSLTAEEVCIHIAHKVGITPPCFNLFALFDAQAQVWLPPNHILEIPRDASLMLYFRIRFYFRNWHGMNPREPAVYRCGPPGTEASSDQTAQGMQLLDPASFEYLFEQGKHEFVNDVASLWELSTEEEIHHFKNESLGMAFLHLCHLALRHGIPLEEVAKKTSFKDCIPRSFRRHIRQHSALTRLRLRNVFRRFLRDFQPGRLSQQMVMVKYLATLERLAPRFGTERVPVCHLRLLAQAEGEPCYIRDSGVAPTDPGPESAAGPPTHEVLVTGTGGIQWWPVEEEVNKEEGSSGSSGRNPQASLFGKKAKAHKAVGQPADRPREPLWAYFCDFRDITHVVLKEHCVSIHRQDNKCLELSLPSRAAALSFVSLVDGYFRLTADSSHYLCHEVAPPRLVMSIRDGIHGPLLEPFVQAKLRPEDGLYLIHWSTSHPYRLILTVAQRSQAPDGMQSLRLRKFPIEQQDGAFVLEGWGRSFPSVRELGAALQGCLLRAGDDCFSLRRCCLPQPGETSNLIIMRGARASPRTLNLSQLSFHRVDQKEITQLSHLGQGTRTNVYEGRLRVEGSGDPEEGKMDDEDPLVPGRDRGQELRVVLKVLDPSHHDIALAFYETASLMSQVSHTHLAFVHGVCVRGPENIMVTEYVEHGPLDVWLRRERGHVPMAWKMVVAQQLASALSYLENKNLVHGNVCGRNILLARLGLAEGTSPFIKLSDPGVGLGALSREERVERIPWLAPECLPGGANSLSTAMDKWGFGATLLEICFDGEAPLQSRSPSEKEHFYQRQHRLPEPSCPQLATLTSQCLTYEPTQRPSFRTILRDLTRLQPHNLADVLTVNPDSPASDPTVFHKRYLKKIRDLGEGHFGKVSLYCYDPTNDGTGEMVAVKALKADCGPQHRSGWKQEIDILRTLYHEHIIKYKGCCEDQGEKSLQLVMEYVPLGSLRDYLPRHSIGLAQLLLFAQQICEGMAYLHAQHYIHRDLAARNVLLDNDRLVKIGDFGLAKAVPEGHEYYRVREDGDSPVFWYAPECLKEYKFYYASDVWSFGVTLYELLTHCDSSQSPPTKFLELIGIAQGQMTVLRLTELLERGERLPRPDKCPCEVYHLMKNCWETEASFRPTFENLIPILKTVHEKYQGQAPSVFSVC

Target: FLAG-tagged wild-type TBEV NS5 (tick-borne encephalitis virus (strain of the cDNA not stated)) (UniProt Q01299)
Assay: co-IP

| Substance | binding |
| --- | --- |
| SMN1 (from UniProt Q16637 1-294) | binds |
| TYK2 (from UniProt P29597 1-1187) | binds |
